Measured values as given in patent publication US11542304B2 (BicycleTx Limited, priority 2018, dated 2023).

Assay: general procedure: Fmoc solid-phase peptide synthesis
Conditions: late stage modification step

Row | Substance | step yield [%] | final purity (method not given) [%]
1 | (PYA)-A-CiIEEGQYCiiFADPY(Nle)Ciii-A | 69.96 | 
2 | (PYA)-A-CiIEEGQYCiiF[D-A]DPY[Nle]Ciii-A |  | 90
3 | Ac-A-CiIEEGQYCiiFADK(PYA)Y(Nle)Ciii-A | 65.87 | 91.74
4 | Ac-A-CiIEEGQYCiiFADPY(Nle)Ciii-Dap(PYA) | 82.13 | 98
5 | Ac-A-CiIEEGQYCiiFADPYK(PYA)Ciii-A | 73.68 | 92.0
6 | Ac-A-CiIEEGQYCiiK(PYA)ADPY(Nle)Ciii-A | 53.24 | 90.5
